Test results: publication PMC8264591
These are yes or no findings as the source states them, for the method shown. Binding seen in cells or lysates may run through a third protein. Some results given as binding are weak or reduced against the parent protein; the word gives no strength.

Protein sequences, listed by entry. Tags and fused reporters are not part of them.
UniProt O95863: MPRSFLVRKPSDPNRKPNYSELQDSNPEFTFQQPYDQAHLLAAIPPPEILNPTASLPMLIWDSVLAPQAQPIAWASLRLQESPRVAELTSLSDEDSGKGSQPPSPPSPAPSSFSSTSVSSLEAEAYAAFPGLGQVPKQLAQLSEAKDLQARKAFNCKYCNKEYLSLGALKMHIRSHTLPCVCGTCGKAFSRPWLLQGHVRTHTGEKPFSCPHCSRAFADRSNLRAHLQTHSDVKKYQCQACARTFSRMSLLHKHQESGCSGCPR

T1: F-box/LRR-repeat protein 7 (human (endogenous in BxPC-3)) (UniProt Q9UJT9)
T1 sequence: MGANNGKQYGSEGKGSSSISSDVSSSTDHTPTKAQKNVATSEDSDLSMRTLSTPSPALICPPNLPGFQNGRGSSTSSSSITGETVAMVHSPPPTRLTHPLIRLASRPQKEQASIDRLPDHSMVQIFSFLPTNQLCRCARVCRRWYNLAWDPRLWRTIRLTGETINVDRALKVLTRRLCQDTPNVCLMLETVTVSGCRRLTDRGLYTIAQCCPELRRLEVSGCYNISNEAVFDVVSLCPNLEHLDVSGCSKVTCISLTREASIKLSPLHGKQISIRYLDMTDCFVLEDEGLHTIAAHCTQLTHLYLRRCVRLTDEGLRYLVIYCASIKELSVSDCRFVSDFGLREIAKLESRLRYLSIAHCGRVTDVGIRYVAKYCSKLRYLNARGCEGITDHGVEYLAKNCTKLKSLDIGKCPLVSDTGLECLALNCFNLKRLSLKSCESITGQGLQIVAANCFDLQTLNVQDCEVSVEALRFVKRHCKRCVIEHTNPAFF


What was measured:
[1] = target: T1, F-box/LRR-repeat protein 7 (human (endogenous in BxPC-3)); experiment: co-IP; reciprocal co-IP of endogenous proteins from BxPC-3 cell lysate (RIPA buffer with protease inhibitor cocktail); pre-cleared with protein A + G agarose beads; 20 ug protein incubated with rabbit IgG, anti-Snail or anti-FBXL7 antibody; Western blot
[2] = target: Snail1 (human (endogenous in BxPC-3)) (UniProt O95863); experiment: as above

Row | binding [1] | binding [2] | Molecule
1 | binds |  | Snail1 (from UniProt O95863 1-264)
2 |  | binds | F-box/LRR-repeat protein 7 (protein, UniProt Q9UJT9 1-491) MGANNGKQYGSEGKGSSSISSDVSSSTDHTPTKAQKNVATSEDSDLSMRTLSTPSPALICPPNLPGFQNGRGSSTSSSSITGETVAMVHSPPPTRLTHPLIRLASRPQKEQASIDRLPDHSMVQIFSFLPTNQLCRCARVCRRWYNLAWDPRLWRTIRLTGETINVDRALKVLTRRLCQDTPNVCLMLETVTVSGCRRLTDRGLYTIAQCCPELRRLEVSGCYNISNEAVFDVVSLCPNLEHLDVSGCSKVTCISLTREASIKLSPLHGKQISIRYLDMTDCFVLEDEGLHTIAAHCTQLTHLYLRRCVRLTDEGLRYLVIYCASIKELSVSDCRFVSDFGLREIAKLESRLRYLSIAHCGRVTDVGIRYVAKYCSKLRYLNARGCEGITDHGVEYLAKNCTKLKSLDIGKCPLVSDTGLECLALNCFNLKRLSLKSCESITGQGLQIVAANCFDLQTLNVQDCEVSVEALRFVKRHCKRCVIEHTNPAFF
